{"source": "PubChem BioAssay AID652243 (Drosophila RNAi Screening Center, 2013)", "purpose": "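Fly genes required for human androgen receptor driven transcription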 (primary screen)", "cells": "Drosophila S2R+ cells", "reagents": "long dsRNA against Drosophila genes", "time to read-out": "72 h (48 h, then 24 h hormone)", "challenge": "synthetic androgen R1881 at 10 nM for 24 h", "detection": "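Firefly light from an androgen-responsive reporter and Renilla control light per well, raw and unnormalised, for each of two replicates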", "scale": "firefly reporter light: higher = more light from androgen-responsive reporter; Renilla control light: higher = more constitutive control signal (cell number, transfection)", "hit rule": "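Across duplicate plates, a knock-down whose log firefly/Renilla ratio shifted a set fold down or up from the GFP/LacZ control mean was a hit; the downward cut appears as both 1.5 and 3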", "meaning of the calls": "active = hit: reporter lowered or raised; inactive = no hit", "note": "In all, the deposit lists about 24,000 reagents; shown is a random part of those that have a named target and a result. Over the whole deposit, 246 (1%) were called active. 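Plates not normalised; calls are printed but the firefly/Renilla ratio behind them is not deposited; fold cut for lowering reported inconsistently.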 The raw values are shown without normalisation. The numbers tell different reagents against one gene apart. Not stated in the record: the amount of reagent."}
{"predicted target":"rdgA","reagent no.":1,"firefly reporter light, replicate 1":2.67e5,"firefly reporter light, replicate 2":2.99e5,"Renilla control light, replicate 1":3.10e6,"Renilla control light, replicate 2":3.10e6,"Outcome":"inactive"}
{"predicted target":"rdgA","reagent no.":2,"firefly reporter light, replicate 1":3.70e5,"firefly reporter light, replicate 2":4.90e5,"Renilla control light, replicate 1":2.98e6,"Renilla control light, replicate 2":3.06e6,"Outcome":"inactive"}
{"predicted target":"rdgA","reagent no.":3,"firefly reporter light, replicate 1":1.32e5,"firefly reporter light, replicate 2":1.54e5,"Renilla control light, replicate 1":1.32e6,"Renilla control light, replicate 2":8.59e5,"Outcome":"inactive"}
{"predicted target":"rdgA","reagent no.":4,"firefly reporter light, replicate 1":8.65e5,"firefly reporter light, replicate 2":1.05e6,"Renilla control light, replicate 1":1.27e6,"Renilla control light, replicate 2":1.33e6,"Outcome":"inactive"}
{"predicted target":"rdgA","reagent no.":5,"firefly reporter light, replicate 1":3.45e5,"firefly reporter light, replicate 2":3.21e5,"Renilla control light, replicate 1":5.76e5,"Renilla control light, replicate 2":6.38e5,"Outcome":"inactive"}
{"predicted target":"rdgA","reagent no.":6,"Outcome":"inactive"}
{"predicted target":"rdgA","reagent no.":7,"firefly reporter light, replicate 1":6.34e5,"firefly reporter light, replicate 2":6.92e5,"Renilla control light, replicate 1":1.77e6,"Renilla control light, replicate 2":1.68e6,"Outcome":"active"}
{"predicted target":"sun","reagent no.":1,"firefly reporter light, replicate 1":4.25e5,"firefly reporter light, replicate 2":4.01e5,"Renilla control light, replicate 1":4.02e6,"Renilla control light, replicate 2":2.84e6,"Outcome":"inactive"}
{"predicted target":"sun","reagent no.":2,"firefly reporter light, replicate 1":2.63e5,"firefly reporter light, replicate 2":2.63e5,"Renilla control light, replicate 1":7.70e5,"Renilla control light, replicate 2":6.18e5,"Outcome":"inactive"}
{"predicted target":"CG34295","reagent no.":1,"firefly reporter light, replicate 1":8.91e5,"firefly reporter light, replicate 2":7.47e5,"Renilla control light, replicate 1":1.97e6,"Renilla control light, replicate 2":1.97e6,"Outcome":"inactive"}
{"predicted target":"CG3036","reagent no.":1,"firefly reporter light, replicate 1":3.50e5,"firefly reporter light, replicate 2":6.55e5,"Renilla control light, replicate 1":1.48e6,"Renilla control light, replicate 2":2.39e6,"Outcome":"inactive"}
{"predicted target":"CG3036","reagent no.":2,"firefly reporter light, replicate 1":7.86e5,"firefly reporter light, replicate 2":9.85e5,"Renilla control light, replicate 1":1.57e6,"Renilla control light, replicate 2":1.92e6,"Outcome":"inactive"}
{"predicted target":"CG3036","reagent no.":3,"firefly reporter light, replicate 1":7.26e5,"firefly reporter light, replicate 2":9.00e5,"Renilla control light, replicate 1":1.02e6,"Renilla control light, replicate 2":1.02e6,"Outcome":"inactive"}

Next part; the last 3 above are carried over.
{"predicted target":"CG3036","reagent no.":1,"firefly reporter light, replicate 1":3.50e5,"firefly reporter light, replicate 2":6.55e5,"Renilla control light, replicate 1":1.48e6,"Renilla control light, replicate 2":2.39e6,"Outcome":"inactive"}
{"predicted target":"CG3036","reagent no.":2,"firefly reporter light, replicate 1":7.86e5,"firefly reporter light, replicate 2":9.85e5,"Renilla control light, replicate 1":1.57e6,"Renilla control light, replicate 2":1.92e6,"Outcome":"inactive"}
{"predicted target":"CG3036","reagent no.":3,"firefly reporter light, replicate 1":7.26e5,"firefly reporter light, replicate 2":9.00e5,"Renilla control light, replicate 1":1.02e6,"Renilla control light, replicate 2":1.02e6,"Outcome":"inactive"}
{"predicted target":"Nubpl","reagent no.":1,"firefly reporter light, replicate 1":5.18e5,"firefly reporter light, replicate 2":4.33e5,"Renilla control light, replicate 1":2.69e6,"Renilla control light, replicate 2":1.95e6,"Outcome":"inactive"}
{"predicted target":"CG6847","reagent no.":1,"firefly reporter light, replicate 1":6.65e5,"firefly reporter light, replicate 2":3.62e5,"Renilla control light, replicate 1":2.60e5,"Renilla control light, replicate 2":2.11e5,"Outcome":"inactive"}
{"predicted target":"CG6847","reagent no.":2,"firefly reporter light, replicate 1":6.14e5,"firefly reporter light, replicate 2":5.39e5,"Renilla control light, replicate 1":3.09e6,"Renilla control light, replicate 2":3.08e6,"Outcome":"inactive"}
{"predicted target":"lawc","reagent no.":1,"firefly reporter light, replicate 1":7.59e5,"firefly reporter light, replicate 2":6.95e5,"Renilla control light, replicate 1":2.07e6,"Renilla control light, replicate 2":1.70e6,"Outcome":"inactive"}
{"predicted target":"gro","reagent no.":1,"firefly reporter light, replicate 1":58125,"firefly reporter light, replicate 2":77831,"Renilla control light, replicate 1":6.01e5,"Renilla control light, replicate 2":5.77e5,"Outcome":"inactive"}
{"predicted target":"Amacr","reagent no.":1,"firefly reporter light, replicate 1":1.04e6,"firefly reporter light, replicate 2":1.06e6,"Renilla control light, replicate 1":2.00e6,"Renilla control light, replicate 2":2.37e6,"Outcome":"inactive"}
{"predicted target":"CG13658","reagent no.":1,"firefly reporter light, replicate 1":2.57e5,"firefly reporter light, replicate 2":2.32e5,"Renilla control light, replicate 1":2.90e6,"Renilla control light, replicate 2":2.39e6,"Outcome":"inactive"}
{"predicted target":"CG13658","reagent no.":2,"firefly reporter light, replicate 1":1.13e6,"firefly reporter light, replicate 2":7.89e5,"Renilla control light, replicate 1":1.17e6,"Renilla control light, replicate 2":1.29e6,"Outcome":"inactive"}
